Experimental data published in PubChem BioAssay AID445 (National Center for Advancing Translational Sciences (NCATS), 2006).
The list shows a part of the results. The main result of the screen is listed elsewhere. These columns were measured beside it and carry no call. The list favours compounds with an active or inconclusive main result. Words in brackets tell the shape of the fitted curve; partial curves, single points and poor fits give uncertain potencies.

Assay: IkB Signaling
Conditions: ABC-DLBCL IkBa-CBG/CBR dual luciferase ratio (green luciferase fused to IkBa over red control in OCI-Ly3 lymphoma cells), 4 h
How it was run: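 In this assay, an IκBα–CBG68 fusion accumulates when IKK-driven degradation is blocked; native CBR normalizes for cell number. OCI-Ly3 cells were treated 4 h with compound and doxycycline, then green and red light read after Chroma-Glo addition.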

[1] = measured here: control luc red channel unless noted

## c1ccc(/N=C2\N=C(Nc3ccccn3)c3ccccc32)nc1
[1]
  AC50: 39.8 µM [rising, single point] [measured here: IkB-luc green channel]

## O=C(CSc1nc2c([nH]c3ccccc32)c(=O)n1-c1cccc(Cl)c1)N1CCOCC1
[1]
  AC50: 39.8 µM [rising, single point] [measured here: IkB-luc green channel]

## COc1cccc(CNC(=O)C2(c3cccs3)CCOCC2)c1
[1]
  AC50: 2 µM [rising, partial curve]

## CCC(NC(=O)c1ccccc1NC(=O)c1ccccc1)C(=O)O (stereo unspecified)
[1]
  AC50: 10 µM [falling, partial curve]

## O=C(c1cc(-c2ccc3c(c2)OCO3)on1)N1CCN(c2ccccc2)CC1
[1]
  AC50: 0.0251 µM [falling, full curve]

## CN1CC2=Cc3ccccc3OC23Oc2ccccc2C=C3C1
Measured here: IkB-luc green channel
  AC50: 3.98 µM [rising, partial curve]
Measured here: control luc red channel
  AC50: 10 µM [falling, partial curve]

## O=C1NC(c2cccs2)Nc2sc3c(c21)CCCC3 (stereo unspecified)
[1]
  AC50: 39.8 µM [falling, single point]

## CCOc1ccc(-n2c(CC)nc3c(cnn3-c3ccc(Cl)cc3)c2=O)cc1
[1]
  AC50: 10 µM [falling, partial curve]

## Cc1oc(-c2cccc(Cl)c2)nc1CN1CCCC(C(=O)N2CCN(c3ccc(F)cc3)CC2)C1 (stereo unspecified)
[1]
  AC50: 31.6 µM [falling, single point]

## Cc1cccc(Cn2c(C)c(CNC3CCCCCC3)c(C(=O)O)c2C)c1
[1]
  AC50: 25.1 µM [falling, single point]

## O=C(Cn1c(=O)c2ccccc2n(CC(=O)Nc2ccc(F)cc2)c1=O)NCCc1ccccc1
[1]
  AC50: 12.6 µM [falling, partial curve]

## Cc1c(NC(=O)C(C)(C)C)cccc1-c1nc2ccccc2s1
[1]
  AC50: 15.8 µM [falling, partial curve]

## Cn1cc(S(=O)(=O)N2CCc3ccccc32)cc1C(=O)Nc1ccc(C(F)(F)F)cc1
[1]
  AC50: 20 µM [falling, single point]

## Cn1cccc1Cc1nnc(SCC(=O)Nc2ccc(Cl)cc2)n1-c1ccc(F)cc1
[1]
  AC50: 12.6 µM [falling, partial curve]

## CCc1ccc(NC(=O)CSc2nc3c([nH]c4ccccc43)c(=O)n2C)cc1
[1]
  AC50: 15.8 µM [falling, partial curve]

## CCOC(=O)c1cc2c(=O)n3ccccc3nc2n(CC2CCCO2)c1=NC(=O)c1ccccc1OCC (stereo unspecified)
[1]
  AC50: 39.8 µM [falling, single point]

## COc1ccccc1OCCCn1c(C2CC(=O)N(c3ccc(F)cc3)C2)nc2ccccc21 (stereo unspecified)
[1]
  AC50: 25.1 µM [falling, partial curve]

## COc1ccc(CCNC(=O)c2c(Nc3ccccc3C)sc(C(=O)c3ccccc3)c2N)cc1OC
[1]
  AC50: 39.8 µM [falling, single point]

## CCCCC(CC)CNC(=O)c1ccc(Cn2c(=O)[nH]c3cc(OC)c(OC)cc3c2=O)cc1 (stereo unspecified)
[1]
  AC50: 15.8 µM [falling, partial curve]

## COc1ccccc1-c1cc(C(=O)NC(C)C)no1
[1]
  AC50: 0.398 µM [falling, full curve]

## COc1ccc(-c2nn(C)c3sc(C(=O)Nc4cc(OC)c(OC)c(OC)c4)cc23)cc1OC
[1]
  AC50: 3.16 µM [falling, full curve]

## CCCN(C(=O)c1c(C)oc2ncn(CC(C)C)c(=O)c12)c1ccccc1C
[1]
  AC50: 7.94 µM [falling, partial curve]

## COc1cccc(CN2CCCN(Cc3ccc(F)cc3)S2(=O)=O)c1
[1]
  AC50: 15.8 µM [falling, partial curve]

## CCCOc1ccc(C(=O)Nc2cc(-c3nc4ccccc4[nH]3)ccc2C)cc1
[1]
  AC50: 6.31 µM [rising, single point]

## COc1ccc(C)cc1NC(=O)C1CCN(S(=O)(=O)Cc2ccccc2)CC1
[1]
  AC50: 20 µM [falling, single point]

## Cc1ccccc1OCc1nnc(SCc2cc(=O)c3cc(F)ccc3[nH]2)n1C
[1]
  AC50: 3.16 µM [falling, partial curve]

## COc1ccc(-c2ccc(CCC(=O)O)n2-c2ccccc2C(F)(F)F)cc1
[1]
  AC50: 12.6 µM [falling, single point]

## COc1ccc(-c2nc3ccccc3o2)cc1NC(=O)c1cc([N+](=O)[O-])ccc1N1CCOCC1
[1]
  AC50: 3.98 µM [falling, full curve]

## CCC1CN(CC(=O)NCc2cccc(Br)c2)c2ccccc2S1 (stereo unspecified)
[1]
  AC50: 2.51 µM [falling, single point]

## COC(=O)Cc1c(C)nc2nc(NCc3ccc(Br)cc3)[nH]n2c1=O
[1]
  AC50: 12.6 µM [falling, partial curve]

## O=C(CCCCCn1c(=O)[nH]c2ccccc2c1=O)NCCCN1CCN(c2ccccc2F)CC1
[1]
  AC50: 20 µM [falling, partial curve]

## CCOC(=O)CN(Cc1ccccc1)C(C(=O)NC1CCCCC1)c1ccccc1 (stereo unspecified)
[1]
  AC50: 12.6 µM [falling, partial curve]

## CCOc1ccc(-n2cc(-c3ccccc3)c3c(NCc4ccccc4)ncnc32)cc1
[1]
  AC50: 0.0631 µM [rising, full curve]

## O=C1C(c2ccncc2)=C(O)c2ccccc21
[1]
  AC50: 20 µM [falling, single point]

## COc1ccc(CNC(=O)C2CCN(S(=O)(=O)N3CCC(C)CC3)CC2)c(OC)c1
[1]
  AC50: 31.6 µM [falling, single point]

## COc1cccc(NC(=O)C2CC(=O)N(c3ccc(Br)cc3)C2)c1 (stereo unspecified)
[1]
  AC50: 12.6 µM [falling, partial curve]

## O=C(NC1=NCCS1)c1cc2ccccc2o1
[1]
  AC50: 12.6 µM [falling, partial curve]

## COc1ccc(OC)c(CCNC(=O)c2ccc3[nH]c(C)c(C)c3c2)c1
[1]
  AC50: 39.8 µM [falling, single point]

## COc1ccc(CNC(=O)c2cc3c(=O)n4ccccc4nc3n(Cc3ccco3)c2=N)cc1
[1]
  AC50: 7.94 µM [falling, full curve]

## COc1cccc(CNC(=O)c2cc3c(=O)n(C)c4ccccc4c3n2C)c1
[1]
  AC50: 7.94 µM [falling, single point]
